This assay deals with T1, Asc1-FTpA (S. cerevisiae) (UniProt P38011).
T1 sequence: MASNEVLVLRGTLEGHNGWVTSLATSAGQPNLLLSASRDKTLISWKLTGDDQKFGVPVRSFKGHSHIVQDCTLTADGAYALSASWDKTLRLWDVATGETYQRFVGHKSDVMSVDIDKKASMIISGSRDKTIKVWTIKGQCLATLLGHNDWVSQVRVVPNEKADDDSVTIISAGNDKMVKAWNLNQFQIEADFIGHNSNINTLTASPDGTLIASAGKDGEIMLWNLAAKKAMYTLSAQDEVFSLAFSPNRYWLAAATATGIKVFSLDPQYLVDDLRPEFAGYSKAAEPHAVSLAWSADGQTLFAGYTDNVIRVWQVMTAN
The assay can be described thus: co-IP; tandem affinity-purification of FTpA-tagged yeast baits (IgG Sepharose, TEV, Flag agarose); western blotting of the Flag eluates; cells with or without depletion of Dim2 or Krr1 where told. (A western blot detects proteins with antibodies after separation by electrophoresis.)

By UniProt entry, the sequences of proteins in these tests, tags left out. Where a name states a change or a piece, a line headed by the entry shows the natural chain unless it says otherwise.
UniProt P39938: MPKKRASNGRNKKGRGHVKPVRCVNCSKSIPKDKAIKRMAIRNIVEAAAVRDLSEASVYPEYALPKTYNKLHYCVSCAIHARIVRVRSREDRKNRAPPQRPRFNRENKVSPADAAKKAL

No constants are given. Whether binding was seen depends on the method and setting. In cells and extracts the contact can be indirect. A result given as binding can be weak or reduced; the word gives no strength.

Regarding Rps26 (from UniProt P39938), the binding entry is listed as “binds”.
